Read-outs that look alike come from different tables or passages of the source. No constants are given. Whether binding was seen depends on the method and setting. In cells and extracts the contact can be indirect. Some results given as binding are weak or reduced against the parent protein; the word gives no strength.

Amino acid sequences for entries named in this document (tags omitted).
UniProt P12956: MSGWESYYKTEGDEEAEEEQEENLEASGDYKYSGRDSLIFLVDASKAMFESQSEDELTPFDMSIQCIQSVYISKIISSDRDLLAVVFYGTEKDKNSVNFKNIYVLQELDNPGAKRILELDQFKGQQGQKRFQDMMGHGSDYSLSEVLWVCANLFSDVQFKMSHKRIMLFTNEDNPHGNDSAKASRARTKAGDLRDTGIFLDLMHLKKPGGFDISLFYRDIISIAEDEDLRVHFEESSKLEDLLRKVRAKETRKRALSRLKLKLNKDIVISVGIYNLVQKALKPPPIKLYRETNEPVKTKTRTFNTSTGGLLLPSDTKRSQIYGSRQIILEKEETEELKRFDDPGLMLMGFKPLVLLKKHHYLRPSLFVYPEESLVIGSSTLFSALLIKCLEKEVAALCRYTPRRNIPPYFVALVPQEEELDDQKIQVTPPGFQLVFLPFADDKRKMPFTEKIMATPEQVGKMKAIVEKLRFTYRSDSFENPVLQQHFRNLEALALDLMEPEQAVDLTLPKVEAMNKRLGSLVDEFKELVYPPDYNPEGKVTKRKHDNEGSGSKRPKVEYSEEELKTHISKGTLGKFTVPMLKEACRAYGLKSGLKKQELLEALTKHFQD
UniProt P09874: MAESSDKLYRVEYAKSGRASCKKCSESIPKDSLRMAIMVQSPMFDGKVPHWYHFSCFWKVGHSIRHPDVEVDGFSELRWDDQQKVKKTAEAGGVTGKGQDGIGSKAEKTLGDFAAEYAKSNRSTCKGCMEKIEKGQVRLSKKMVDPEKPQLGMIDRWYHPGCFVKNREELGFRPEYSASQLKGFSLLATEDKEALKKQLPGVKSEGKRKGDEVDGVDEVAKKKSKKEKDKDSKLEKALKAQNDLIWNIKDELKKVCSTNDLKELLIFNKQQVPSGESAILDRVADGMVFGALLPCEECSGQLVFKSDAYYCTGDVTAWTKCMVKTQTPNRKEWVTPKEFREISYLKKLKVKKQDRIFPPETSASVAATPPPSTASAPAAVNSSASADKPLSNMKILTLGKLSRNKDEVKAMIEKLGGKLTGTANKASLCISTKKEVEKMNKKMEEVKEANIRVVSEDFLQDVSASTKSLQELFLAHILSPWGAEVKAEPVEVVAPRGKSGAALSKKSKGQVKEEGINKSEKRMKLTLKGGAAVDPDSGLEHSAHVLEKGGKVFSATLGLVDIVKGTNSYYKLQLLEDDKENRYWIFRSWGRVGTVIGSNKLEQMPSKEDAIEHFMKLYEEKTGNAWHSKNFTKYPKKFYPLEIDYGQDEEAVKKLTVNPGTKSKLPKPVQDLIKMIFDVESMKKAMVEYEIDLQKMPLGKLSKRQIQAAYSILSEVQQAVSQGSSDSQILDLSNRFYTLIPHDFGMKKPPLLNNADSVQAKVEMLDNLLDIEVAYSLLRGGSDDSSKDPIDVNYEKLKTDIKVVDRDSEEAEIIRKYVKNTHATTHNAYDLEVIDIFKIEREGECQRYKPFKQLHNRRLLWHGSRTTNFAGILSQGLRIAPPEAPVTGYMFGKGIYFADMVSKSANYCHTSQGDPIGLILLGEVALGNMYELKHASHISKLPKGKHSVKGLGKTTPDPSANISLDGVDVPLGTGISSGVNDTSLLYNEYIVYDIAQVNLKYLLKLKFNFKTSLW
UniProt P13010: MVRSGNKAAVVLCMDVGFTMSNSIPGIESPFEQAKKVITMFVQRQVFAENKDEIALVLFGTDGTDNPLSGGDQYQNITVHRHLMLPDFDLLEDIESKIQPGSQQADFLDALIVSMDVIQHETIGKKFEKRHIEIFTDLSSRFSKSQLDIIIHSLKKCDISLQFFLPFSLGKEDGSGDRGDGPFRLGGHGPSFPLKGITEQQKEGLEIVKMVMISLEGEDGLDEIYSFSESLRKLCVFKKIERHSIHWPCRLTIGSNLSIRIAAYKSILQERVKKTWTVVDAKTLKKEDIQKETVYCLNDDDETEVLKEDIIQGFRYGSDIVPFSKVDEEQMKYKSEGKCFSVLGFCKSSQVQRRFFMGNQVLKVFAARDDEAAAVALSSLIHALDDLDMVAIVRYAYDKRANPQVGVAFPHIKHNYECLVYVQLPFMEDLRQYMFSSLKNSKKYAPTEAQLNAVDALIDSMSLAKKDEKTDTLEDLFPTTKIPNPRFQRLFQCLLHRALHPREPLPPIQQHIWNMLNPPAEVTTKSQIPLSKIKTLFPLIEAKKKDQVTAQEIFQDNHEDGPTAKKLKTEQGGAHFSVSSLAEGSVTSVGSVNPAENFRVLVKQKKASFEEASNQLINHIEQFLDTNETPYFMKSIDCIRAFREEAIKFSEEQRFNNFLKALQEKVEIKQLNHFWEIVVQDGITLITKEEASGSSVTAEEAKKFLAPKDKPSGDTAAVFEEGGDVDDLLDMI
UniProt Q92826: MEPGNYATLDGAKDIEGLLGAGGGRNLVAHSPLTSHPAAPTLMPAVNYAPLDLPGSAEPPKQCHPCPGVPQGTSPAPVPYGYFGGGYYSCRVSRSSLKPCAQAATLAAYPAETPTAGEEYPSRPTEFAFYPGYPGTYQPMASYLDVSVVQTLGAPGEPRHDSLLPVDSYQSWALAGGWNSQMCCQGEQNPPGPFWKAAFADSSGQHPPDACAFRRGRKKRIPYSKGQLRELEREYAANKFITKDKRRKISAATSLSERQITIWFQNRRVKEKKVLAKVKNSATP

The target in assay [1] is FLAG-NKX3.1 (human) (UniProt Q99801). Nature of the assay: co-IP; LNCaP cells transfected with FLAG-NKX3.1 or empty vector; lysate absorbed to FLAG M2 resin; co-purifying endogenous proteins detected by immunoblotting.
Assay [2] deals with endogenous NKX3.1 (human (endogenous in LNCaP)) (UniProt Q99801). The assay can be described thus: co-IP; nuclear protein fraction of LNCaP cells, immunoprecipitation with NKX3.1 antibodies or IgG control; immunoblotting.
In assay [3] the target is FLAG-NKX3.1 (human) (UniProt Q99801). The assay can be described thus: co-IP; LNCaP cells transfected with FLAG-NKX3.1 or empty vector; lysate absorbed to FLAG M2 resin; co-purifying endogenous proteins detected by immunoblotting. The source holds these as a separate data set.

Consider XRCC6/Ku70 (from UniProt P12956 1-609), for which the binding result (with FLAG-NKX3.1 (human) [1]; in assay [2]) was “binds” each time.
Consider “poly(ADP) ribose polymerase (PARP1) (from UniProt P09874 1-1014) (enzyme)”, for which the binding result (with FLAG-NKX3.1 (human) [1]; in assay [2]) was “binds” in each case.
Consider XRCC5/Ku80 (from UniProt P13010 1-732), for which the binding result (with FLAG-NKX3.1 (human) [1]; in assay [2]) was “binds” in each case.
On to “homeobox transcription factor HOXB13 (from UniProt Q92826 1-284)”, for which the binding result in the assay with FLAG-NKX3.1 (human) [1] was “binds”.

B1: chromatin and nuclear assembly regulator BANF1 (protein, UniProt O75531 1-89)
chain: MTTSQKHRDFVAEPMGEKPVGSLAGIGEVLGKKLEERGFDKAYVVLGQFLVLKKDEDLFREWLKDTCGANAKQSRDCFGCLREWCDAFL
Turning to B1, the binding entry in the assay with FLAG-NKX3.1 (human) [3] was “binds”.

Source of the values: article PMC4141641.
